According to the supplement of paper PMC12823440, “Inhibitors supercharge kinase turnover through native proteolytic circuits” (Nature, 2025):
Structures can show the parent of a compound that is named as a salt. This is one part of the list. The calls rarely recur for the same compound in another form.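 Kinases, fused to nanoluciferase, were expressed in K562 cells; luminescence was measured every 4 h from 2 to 18 h as percent of control (DMSO = 100%, positive control = 0%). A time point is decreased if signal falls significantly (2 sigma). Hits were called by the authors by a rule that is not shown; the count of time points alone does not decide it.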

Protein sequences, listed by entry. Tags and fused reporters are not part of them. Lines headed by an entry give the natural chain unless they say otherwise; changes in a name come on top.
UniProt P42356, whole entry, looked up: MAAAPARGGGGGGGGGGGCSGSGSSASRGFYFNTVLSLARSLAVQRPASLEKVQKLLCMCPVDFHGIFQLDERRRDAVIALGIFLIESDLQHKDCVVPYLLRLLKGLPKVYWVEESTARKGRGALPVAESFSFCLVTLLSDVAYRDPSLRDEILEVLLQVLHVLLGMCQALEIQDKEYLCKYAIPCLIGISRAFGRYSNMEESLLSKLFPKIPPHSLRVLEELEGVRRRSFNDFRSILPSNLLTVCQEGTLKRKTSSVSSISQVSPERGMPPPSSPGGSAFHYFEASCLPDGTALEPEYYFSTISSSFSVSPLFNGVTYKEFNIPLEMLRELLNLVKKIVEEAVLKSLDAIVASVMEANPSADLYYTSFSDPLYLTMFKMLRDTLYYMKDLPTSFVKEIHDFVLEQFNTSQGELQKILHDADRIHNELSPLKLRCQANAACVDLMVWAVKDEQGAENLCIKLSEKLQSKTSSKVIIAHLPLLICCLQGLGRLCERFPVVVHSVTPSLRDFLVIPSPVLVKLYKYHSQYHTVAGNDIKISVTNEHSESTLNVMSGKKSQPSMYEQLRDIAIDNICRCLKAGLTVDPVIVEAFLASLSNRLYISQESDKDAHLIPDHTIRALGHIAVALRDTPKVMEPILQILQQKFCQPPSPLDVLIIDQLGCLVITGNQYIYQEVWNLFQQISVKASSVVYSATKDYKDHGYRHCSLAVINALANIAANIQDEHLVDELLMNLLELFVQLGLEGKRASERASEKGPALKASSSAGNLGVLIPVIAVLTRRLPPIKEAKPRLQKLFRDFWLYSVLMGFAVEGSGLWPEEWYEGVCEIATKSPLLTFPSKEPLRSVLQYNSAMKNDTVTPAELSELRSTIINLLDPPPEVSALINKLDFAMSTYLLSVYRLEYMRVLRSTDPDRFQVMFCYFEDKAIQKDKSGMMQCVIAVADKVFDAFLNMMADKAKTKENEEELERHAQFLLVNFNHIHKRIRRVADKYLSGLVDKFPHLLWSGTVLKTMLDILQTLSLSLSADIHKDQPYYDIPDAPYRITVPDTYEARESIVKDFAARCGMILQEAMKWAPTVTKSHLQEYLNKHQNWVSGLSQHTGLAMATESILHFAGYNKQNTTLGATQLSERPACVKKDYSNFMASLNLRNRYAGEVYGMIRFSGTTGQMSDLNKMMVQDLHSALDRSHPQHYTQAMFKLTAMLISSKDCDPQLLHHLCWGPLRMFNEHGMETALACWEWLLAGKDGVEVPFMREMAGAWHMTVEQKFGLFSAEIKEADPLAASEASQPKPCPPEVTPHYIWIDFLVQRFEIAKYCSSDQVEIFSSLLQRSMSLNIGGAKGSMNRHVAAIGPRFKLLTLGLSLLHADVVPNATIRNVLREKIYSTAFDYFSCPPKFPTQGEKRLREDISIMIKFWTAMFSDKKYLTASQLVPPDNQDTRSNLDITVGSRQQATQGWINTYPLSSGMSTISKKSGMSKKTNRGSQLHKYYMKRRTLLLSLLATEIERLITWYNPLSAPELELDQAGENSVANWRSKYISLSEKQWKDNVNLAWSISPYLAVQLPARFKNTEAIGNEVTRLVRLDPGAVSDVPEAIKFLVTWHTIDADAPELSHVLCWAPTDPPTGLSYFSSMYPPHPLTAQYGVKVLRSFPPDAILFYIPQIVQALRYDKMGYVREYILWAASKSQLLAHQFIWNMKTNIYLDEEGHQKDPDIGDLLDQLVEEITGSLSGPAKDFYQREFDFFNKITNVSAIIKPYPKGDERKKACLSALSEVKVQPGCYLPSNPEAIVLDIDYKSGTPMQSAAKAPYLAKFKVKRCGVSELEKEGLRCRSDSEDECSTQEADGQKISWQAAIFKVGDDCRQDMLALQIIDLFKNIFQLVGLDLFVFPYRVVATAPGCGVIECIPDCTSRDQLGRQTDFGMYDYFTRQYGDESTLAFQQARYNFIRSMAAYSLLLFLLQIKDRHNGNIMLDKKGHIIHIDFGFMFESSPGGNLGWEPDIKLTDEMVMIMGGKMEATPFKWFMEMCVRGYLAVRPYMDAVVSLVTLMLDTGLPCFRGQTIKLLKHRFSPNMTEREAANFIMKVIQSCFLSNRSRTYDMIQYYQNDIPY
UniProt Q9UBF8: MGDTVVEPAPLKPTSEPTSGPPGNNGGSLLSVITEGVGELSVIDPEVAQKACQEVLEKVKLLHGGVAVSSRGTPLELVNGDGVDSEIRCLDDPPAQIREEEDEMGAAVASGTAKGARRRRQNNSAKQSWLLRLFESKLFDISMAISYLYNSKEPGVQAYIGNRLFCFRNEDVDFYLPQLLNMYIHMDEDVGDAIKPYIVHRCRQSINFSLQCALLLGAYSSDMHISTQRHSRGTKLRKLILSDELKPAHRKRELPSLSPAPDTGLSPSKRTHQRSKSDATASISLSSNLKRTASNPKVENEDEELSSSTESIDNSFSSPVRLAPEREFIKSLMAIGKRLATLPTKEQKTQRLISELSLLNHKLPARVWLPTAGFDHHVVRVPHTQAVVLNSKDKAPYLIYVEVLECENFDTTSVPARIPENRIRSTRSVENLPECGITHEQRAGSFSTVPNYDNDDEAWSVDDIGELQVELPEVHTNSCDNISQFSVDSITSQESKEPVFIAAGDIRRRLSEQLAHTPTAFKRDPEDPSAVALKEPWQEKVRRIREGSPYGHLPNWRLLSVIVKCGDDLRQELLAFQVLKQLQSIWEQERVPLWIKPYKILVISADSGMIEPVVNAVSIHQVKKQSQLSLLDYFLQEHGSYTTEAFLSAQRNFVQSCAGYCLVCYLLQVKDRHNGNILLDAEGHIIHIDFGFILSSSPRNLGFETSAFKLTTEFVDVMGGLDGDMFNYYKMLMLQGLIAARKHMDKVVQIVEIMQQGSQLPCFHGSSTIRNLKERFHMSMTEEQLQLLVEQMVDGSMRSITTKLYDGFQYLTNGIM
UniProt Q13131: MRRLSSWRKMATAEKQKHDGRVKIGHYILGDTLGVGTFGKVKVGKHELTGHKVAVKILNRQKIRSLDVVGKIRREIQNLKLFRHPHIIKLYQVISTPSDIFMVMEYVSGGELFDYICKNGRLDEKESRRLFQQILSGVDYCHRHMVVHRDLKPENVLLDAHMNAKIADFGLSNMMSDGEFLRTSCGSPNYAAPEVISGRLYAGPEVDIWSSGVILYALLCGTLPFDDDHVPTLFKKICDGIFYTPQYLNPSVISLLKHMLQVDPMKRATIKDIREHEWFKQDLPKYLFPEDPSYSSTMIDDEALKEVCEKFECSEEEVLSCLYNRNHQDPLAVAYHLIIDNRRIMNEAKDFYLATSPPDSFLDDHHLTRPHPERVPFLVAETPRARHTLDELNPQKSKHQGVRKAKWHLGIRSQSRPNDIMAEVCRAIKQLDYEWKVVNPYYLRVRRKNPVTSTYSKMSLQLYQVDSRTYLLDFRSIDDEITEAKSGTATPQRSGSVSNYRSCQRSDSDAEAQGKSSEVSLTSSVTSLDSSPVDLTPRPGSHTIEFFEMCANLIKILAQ
UniProt Q05397, whole entry, looked up: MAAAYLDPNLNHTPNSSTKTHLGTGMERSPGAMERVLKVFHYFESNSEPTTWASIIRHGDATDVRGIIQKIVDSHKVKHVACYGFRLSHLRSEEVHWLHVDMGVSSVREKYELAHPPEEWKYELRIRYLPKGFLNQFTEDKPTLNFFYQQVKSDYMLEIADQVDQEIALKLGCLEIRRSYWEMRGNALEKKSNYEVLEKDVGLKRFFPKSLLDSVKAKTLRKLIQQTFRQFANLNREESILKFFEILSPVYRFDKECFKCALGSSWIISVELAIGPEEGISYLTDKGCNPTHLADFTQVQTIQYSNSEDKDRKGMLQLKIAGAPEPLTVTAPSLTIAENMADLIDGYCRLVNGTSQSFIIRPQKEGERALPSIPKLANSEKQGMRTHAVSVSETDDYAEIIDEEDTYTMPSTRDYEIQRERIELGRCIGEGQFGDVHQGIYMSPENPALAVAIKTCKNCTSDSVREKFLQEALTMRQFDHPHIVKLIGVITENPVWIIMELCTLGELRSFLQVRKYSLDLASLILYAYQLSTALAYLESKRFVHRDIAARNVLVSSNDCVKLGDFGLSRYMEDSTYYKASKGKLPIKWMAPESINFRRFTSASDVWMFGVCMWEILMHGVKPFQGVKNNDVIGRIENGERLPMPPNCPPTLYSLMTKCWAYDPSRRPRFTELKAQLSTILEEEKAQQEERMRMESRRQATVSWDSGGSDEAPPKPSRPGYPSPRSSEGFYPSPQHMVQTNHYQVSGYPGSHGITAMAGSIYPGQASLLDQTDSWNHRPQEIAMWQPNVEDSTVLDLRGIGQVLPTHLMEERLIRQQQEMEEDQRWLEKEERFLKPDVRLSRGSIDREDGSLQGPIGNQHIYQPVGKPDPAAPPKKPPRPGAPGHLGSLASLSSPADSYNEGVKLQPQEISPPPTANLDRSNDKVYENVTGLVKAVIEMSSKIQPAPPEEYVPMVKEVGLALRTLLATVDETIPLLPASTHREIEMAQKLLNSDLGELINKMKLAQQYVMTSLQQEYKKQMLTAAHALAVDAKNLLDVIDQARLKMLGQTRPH
UniProt Q14289, whole entry, looked up: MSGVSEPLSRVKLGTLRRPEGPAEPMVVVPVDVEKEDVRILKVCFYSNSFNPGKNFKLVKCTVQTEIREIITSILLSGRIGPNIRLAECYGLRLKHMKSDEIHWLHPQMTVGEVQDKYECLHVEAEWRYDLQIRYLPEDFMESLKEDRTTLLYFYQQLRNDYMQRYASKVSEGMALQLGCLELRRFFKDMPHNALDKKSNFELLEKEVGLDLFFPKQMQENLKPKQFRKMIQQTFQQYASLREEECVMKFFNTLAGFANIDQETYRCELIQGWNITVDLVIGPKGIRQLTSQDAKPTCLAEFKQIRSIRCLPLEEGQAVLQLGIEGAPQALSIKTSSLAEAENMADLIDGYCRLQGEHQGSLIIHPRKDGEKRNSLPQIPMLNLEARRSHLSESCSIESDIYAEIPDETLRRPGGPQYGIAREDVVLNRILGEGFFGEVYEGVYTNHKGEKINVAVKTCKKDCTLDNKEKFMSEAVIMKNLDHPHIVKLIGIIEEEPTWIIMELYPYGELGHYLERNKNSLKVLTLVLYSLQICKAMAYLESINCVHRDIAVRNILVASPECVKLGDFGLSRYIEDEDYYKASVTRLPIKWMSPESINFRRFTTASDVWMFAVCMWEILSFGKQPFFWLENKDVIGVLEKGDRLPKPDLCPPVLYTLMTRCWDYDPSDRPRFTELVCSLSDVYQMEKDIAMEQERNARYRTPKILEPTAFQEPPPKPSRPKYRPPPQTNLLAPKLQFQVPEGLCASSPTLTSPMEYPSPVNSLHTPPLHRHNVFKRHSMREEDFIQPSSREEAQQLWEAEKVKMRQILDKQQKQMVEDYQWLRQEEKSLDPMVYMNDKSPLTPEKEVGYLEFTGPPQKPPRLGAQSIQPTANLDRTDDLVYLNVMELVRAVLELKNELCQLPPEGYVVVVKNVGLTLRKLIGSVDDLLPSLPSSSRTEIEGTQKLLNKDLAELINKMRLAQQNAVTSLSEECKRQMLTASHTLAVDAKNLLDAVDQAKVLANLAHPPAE

How the values were obtained:
Experiment in all cases: kinase-Nluc reporter destabilization hit call (1 = scored as downregulated) (binary); higher = compound decreases kinase abundance
Conditions in all cases: K562; 2-18 h
PDPK1 = PDPK1 (UniProt O15530)
PIK4CA = PIK4CA (UniProt P42356)
PIK4CB = PIK4CB (UniProt Q9UBF8)
PLK1 = PLK1 (UniProt P53350)
PRKAA1 = PRKAA1 (UniProt Q13131)
PRKCA = PRKCA (UniProt P17252)
PTK2 = PTK2 (UniProt Q05397)
PTK2B = PTK2B (UniProt Q14289)
RAF1 = RAF1 (UniProt P04049)
[1] = target: RAF1_S257L (clone: RAF1_mut) (UniProt P04049)

Measured: kinase-Nluc reporter destabilization hit call

CS[C@@]1(C(=O)Nc2ccc3[nH]nc(-c4ccc(OC(C)C)nc4)c3c2)CCN(CC(=O)N2CC=C(c3ccc(-c4ncn(C)n4)cc3)CC2)C1 (2.5 µM)
inactive: PDPK1 = 0 | PIK4CA 0 | PIK4CB 0 | PLK1 = 0 | PRKAA1 = 0 | PRKCA 0 | PTK2 = 0 | PTK2B 0 | RAF1 = 0 | [1] 0

CNCCOc1ccccc1C1(Nc2nccn(-c3cc(C(=O)NC4CC4)cc(F)c3C)c2=O)CC1 (10 µM)
inactive: PDPK1 = 0 | PIK4CA 0 | PIK4CB 0 | PLK1 = 0 | PRKAA1 = 0 | PRKCA 0 | PTK2 = 0 | PTK2B 0 | RAF1 = 0 | [1] 0

Cc1cc(N2CCOCC2)ccc1Nc1nc(NC2CCCCC2)c2[nH]cnc2n1 (10 µM)
inactive: PDPK1 = 0 | PIK4CA 0 | PIK4CB 0 | PLK1 = 0 | PRKAA1 = 0 | PRKCA 0 | PTK2 = 0 | PTK2B 0 | RAF1 = 0 | [1] 0

CCn1c(N)c(C(=O)NC)c(=O)c2ccc(C#CC(C)(O)COC)nc21 (stereo not given) (10 µM)
inactive: PDPK1 = 0 | PIK4CA 0 | PIK4CB 0 | PLK1 = 0 | PRKAA1 = 0 | PRKCA 0 | PTK2 = 0 | PTK2B 0 | RAF1 = 0 | [1] 0

O=C(Nc1ccccc1C(=O)NC1CCCCNC1=O)c1cc2ccccc2s1 (stereo not given) (10 µM)
inactive: PDPK1 = 0 | PIK4CA 0 | PIK4CB 0 | PLK1 = 0 | PRKAA1 = 0 | PRKCA 0 | PTK2 = 0 | PTK2B 0 | RAF1 = 0 | [1] 0

CN(C[C@@H]1COCCO1)S(=O)(=O)Nc1ccc2ccc3ncc(-c4cnn(C)c4)cc3c(=O)c2c1 (2.5 µM)
inactive: PDPK1 = 0 | PIK4CA 0 | PIK4CB 0 | PLK1 = 0 | PRKAA1 = 0 | PRKCA 0 | PTK2 = 0 | PTK2B 0 | RAF1 = 0 | [1] 0

C[C@@H]1CN(Cc2ccc(F)cc2)[C@@H](C)CN1C(=O)c1cc2c(C(=O)C(=O)N(C)C)cn(C)c2cc1Cl [Talmapimod] (10 µM)
inactive: PDPK1 = 0 | PIK4CA 0 | PIK4CB 0 | PLK1 = 0 | PRKAA1 = 0 | PRKCA 0 | PTK2 = 0 | PTK2B 0 | RAF1 = 0 | [1] 0

CCOC(=O)c1c(N2CCc3ccc(OC)cc3C2)oc(C=C2C=Nc3ncccc32)c1O (10 µM)
inactive: PDPK1 = 0 | PIK4CA 0 | PIK4CB 0 | PLK1 = 0 | PRKAA1 = 0 | PRKCA 0 | PTK2 = 0 | PTK2B 0 | RAF1 = 0 | [1] 0

CO[C@@H]1[C@H](N(C)C(=O)c2ccccc2)C[C@H]2O[C@]1(C)n1c3ccccc3c3c4c(c5c6ccccc6n2c5c31)C(=O)NC4 [Midostaurin] (2.5 µM)
inactive: PDPK1 = 0 | PIK4CA 0 | PIK4CB 0 | PLK1 = 0 | PRKAA1 = 0 | PRKCA 0 | PTK2 = 0 | PTK2B 0 | RAF1 = 0 | [1] 0

O=CN1CCN(c2ccc(C=C3C(=O)Nc4ccccc43)cc2)CC1 (10 µM)
inactive: PDPK1 = 0 | PIK4CA 0 | PIK4CB 0 | PLK1 = 0 | PRKAA1 = 0 | PRKCA 0 | PTK2 = 0 | PTK2B 0 | RAF1 = 0 | [1] 0

Nc1ccc(-c2cccc(C(=O)Nc3cnc4nc(N5CCOCC5)oc4c3)n2)cn1 (10 µM)
inactive: PDPK1 = 0 | PIK4CA 0 | PIK4CB 0 | PLK1 = 0 | PRKAA1 = 0 | PRKCA 0 | PTK2 = 0 | PTK2B 0 | RAF1 = 0 | [1] 0

CN(C)CCOc1cc(-c2cn[nH]c2)ccc1NC(=O)C1COc2ccccc2O1 (stereo not given) (10 µM)
inactive: PDPK1 = 0 | PIK4CA 0 | PIK4CB 0 | PLK1 = 0 | PRKAA1 = 0 | PRKCA 0 | PTK2 = 0 | PTK2B 0 | RAF1 = 0 | [1] 0

Cn1cnc2c(F)c(Nc3ccc(Br)cc3F)c(C(=O)NOCCO)cc21 [Binimetinib] (10 µM)
inactive: PDPK1 = 0 | PIK4CA 0 | PIK4CB 0 | PLK1 = 0 | PRKAA1 = 0 | PRKCA 0 | PTK2 = 0 | PTK2B 0 | RAF1 = 0 | [1] 0

CC(C)(C)S(=O)(=O)c1cc2c(Nc3ccc4scnc4c3)ncnc2cc1OCCOP(=O)(O)O (2 µM)
inactive: PDPK1 = 0 | PIK4CA 0 | PIK4CB 0 | PLK1 = 0 | PRKAA1 = 0 | PRKCA 0 | PTK2 = 0 | PTK2B 0 | RAF1 = 0 | [1] 0

COc1ccc(CCNCc2ccc(OCc3ccc(Cl)nc3)c(OC)c2)cc1OC [SBE13 (Hydrochloride)] (10 µM)
inactive: PDPK1 = 0 | PIK4CA 0 | PIK4CB 0 | PLK1 = 0 | PRKAA1 = 0 | PRKCA 0 | PTK2 = 0 | PTK2B 0 | RAF1 = 0 | [1] 0

CCC[C@H](C)Oc1nc(N)c2[nH]c(=O)n(CCCCCN3CCCCC3)c2n1 (10 µM)
inactive: PDPK1 = 0 | PIK4CA 0 | PIK4CB 0 | PLK1 = 0 | PRKAA1 = 0 | PRKCA 0 | PTK2 = 0 | PTK2B 0 | RAF1 = 0 | [1] 0

CN1CCC(Nc2ccc(C(=O)Nc3cc(-c4ccc5c(c4)OCO5)[nH]n3)cc2)CC1 (10 µM)
inactive: PDPK1 = 0 | PIK4CA 0 | PIK4CB 0 | PLK1 = 0 | PRKAA1 = 0 | PRKCA 0 | PTK2 = 0 | PTK2B 0 | RAF1 = 0 | [1] 0

CNCc1ccccc1Sc1cccc2ccccc12 [IFN alpha-IFNAR-IN-1 (hydrochloride)] (10 µM)
inactive: PDPK1 = 0 | PIK4CA 0 | PIK4CB 0 | PLK1 = 0 | PRKAA1 = 0 | PRKCA 0 | PTK2 = 0 | PTK2B 0 | RAF1 = 0 | [1] 0

CN(C)c1cc[n+](Cc2ccc(OCCOc3ccc(C[n+]4ccc(N(C)C)cc4)cc3)cc2)cc1 (10 µM)
inactive: PDPK1 = 0 | PIK4CA 0 | PIK4CB 0 | PLK1 = 0 | PRKAA1 = 0 | PRKCA 0 | PTK2 = 0 | PTK2B 0 | RAF1 = 0 | [1] 0

COc1ccc(Cl)cc1N(CC(=O)Nc1ccc2c(c1)OCO2)S(=O)(=O)c1ccccc1 (2.5 µM)
inactive: PDPK1 = 0 | PIK4CA 0 | PIK4CB 0 | PLK1 = 0 | PRKAA1 = 0 | PRKCA 0 | PTK2 = 0 | PTK2B 0 | RAF1 = 0 | [1] 0

COc1c(Nc2ncc(Cl)c(N[C@H]3[C@@H](C(N)=O)[C@@H]4C=C[C@H]3C4)n2)ccc2c1CC[C@@H](N1CCOCC1)CC2 (10 µM)
inactive: PDPK1 = 0 | PIK4CA 0 | PIK4CB 0 | PLK1 = 0 | PRKAA1 = 0 | PRKCA 0 | PTK2 = 0 | PTK2B 0 | RAF1 = 0 | [1] 0

Cc1n[nH]c2ncc(C(=O)N3CCC[C@H]3c3ccc(Cl)cc3)cc12 (10 µM)
inactive: PDPK1 = 0 | PIK4CA 0 | PIK4CB 0 | PLK1 = 0 | PRKAA1 = 0 | PRKCA 0 | PTK2 = 0 | PTK2B 0 | RAF1 = 0 | [1] 0

N#CC(=C(/N)Sc1ccccc1N)/C(C#N)=C(\N)Sc1ccccc1N (10 µM)
inactive: PDPK1 = 0 | PIK4CA 0 | PIK4CB 0 | PLK1 = 0 | PRKAA1 = 0 | PRKCA 0 | PTK2 = 0 | PTK2B 0 | RAF1 = 0 | [1] 0

C=CC(=O)N1CCC(c2ccc(C(N)=O)c(-c3ccc(Oc4ccccc4)cc3)n2)CC1 [Orelabrutinib] (2.5 µM)
inactive: PDPK1 = 0 | PIK4CA 0 | PIK4CB 0 | PLK1 = 0 | PRKAA1 = 0 | PRKCA 0 | PTK2 = 0 | PTK2B 0 | RAF1 = 0 | [1] 0

O=C(COc1ccc(Cl)cc1)NC1CCC(NC(=O)COc2ccc(Cl)cc2)CC1 (stereo not drawn) [ISRIB (trans-isomer)] (10 µM)
inactive: PDPK1 = 0 | PIK4CA 0 | PIK4CB 0 | PLK1 = 0 | PRKAA1 = 0 | PRKCA 0 | PTK2 = 0 | PTK2B 0 | RAF1 = 0 | [1] 0

Seven successive compounds already listed, quoted:
CN(C)c1cc[n+](Cc2ccc(OCCOc3ccc(C[n+]4ccc(N(C)C)cc4)cc3)cc2)cc1 (10 µM)
inactive: PDPK1 = 0 | PIK4CA 0 | PIK4CB 0 | PLK1 = 0 | PRKAA1 = 0 | PRKCA 0 | PTK2 = 0 | PTK2B 0 | RAF1 = 0 | [1] 0

COc1ccc(Cl)cc1N(CC(=O)Nc1ccc2c(c1)OCO2)S(=O)(=O)c1ccccc1 (2.5 µM)
inactive: PDPK1 = 0 | PIK4CA 0 | PIK4CB 0 | PLK1 = 0 | PRKAA1 = 0 | PRKCA 0 | PTK2 = 0 | PTK2B 0 | RAF1 = 0 | [1] 0

COc1c(Nc2ncc(Cl)c(N[C@H]3[C@@H](C(N)=O)[C@@H]4C=C[C@H]3C4)n2)ccc2c1CC[C@@H](N1CCOCC1)CC2 (10 µM)
inactive: PDPK1 = 0 | PIK4CA 0 | PIK4CB 0 | PLK1 = 0 | PRKAA1 = 0 | PRKCA 0 | PTK2 = 0 | PTK2B 0 | RAF1 = 0 | [1] 0

Cc1n[nH]c2ncc(C(=O)N3CCC[C@H]3c3ccc(Cl)cc3)cc12 (10 µM)
inactive: PDPK1 = 0 | PIK4CA 0 | PIK4CB 0 | PLK1 = 0 | PRKAA1 = 0 | PRKCA 0 | PTK2 = 0 | PTK2B 0 | RAF1 = 0 | [1] 0

N#CC(=C(/N)Sc1ccccc1N)/C(C#N)=C(\N)Sc1ccccc1N (10 µM)
inactive: PDPK1 = 0 | PIK4CA 0 | PIK4CB 0 | PLK1 = 0 | PRKAA1 = 0 | PRKCA 0 | PTK2 = 0 | PTK2B 0 | RAF1 = 0 | [1] 0

C=CC(=O)N1CCC(c2ccc(C(N)=O)c(-c3ccc(Oc4ccccc4)cc3)n2)CC1 [Orelabrutinib] (2.5 µM)
inactive: PDPK1 = 0 | PIK4CA 0 | PIK4CB 0 | PLK1 = 0 | PRKAA1 = 0 | PRKCA 0 | PTK2 = 0 | PTK2B 0 | RAF1 = 0 | [1] 0

O=C(COc1ccc(Cl)cc1)NC1CCC(NC(=O)COc2ccc(Cl)cc2)CC1 (stereo not drawn) [ISRIB (trans-isomer)] (10 µM)
inactive: PDPK1 = 0 | PIK4CA 0 | PIK4CB 0 | PLK1 = 0 | PRKAA1 = 0 | PRKCA 0 | PTK2 = 0 | PTK2B 0 | RAF1 = 0 | [1] 0

Remaining list, next part

COc1cc(N2CCC(N3CCN(C)CC3)CC2)ccc1Nc1ncnc(Nc2ccccc2S(=O)(=O)C(C)C)n1 (10 µM)
inactive: PDPK1 = 0 | PIK4CA 0 | PIK4CB 0 | PLK1 = 0 | PRKAA1 = 0 | PRKCA 0 | PTK2 = 0 | PTK2B 0 | RAF1 = 0 | [1] 0

Cn1cc(-c2nc(N[C@@H]3CCCC[C@@H]3N)c(F)c3c2C(=O)NC3)cn1 [TAK-659 (hydrochloride)] (2 µM)
inactive: PDPK1 = 0 | PIK4CA 0 | PIK4CB 0 | PLK1 = 0 | PRKAA1 = 0 | PRKCA 0 | PTK2 = 0 | PTK2B 0 | RAF1 = 0 | [1] 0

CCOC(=O)c1c(Nc2ccccc2Cl)oc(/C=C2\C=Nc3ncccc32)c1O (10 µM)
inactive: PDPK1 = 0 | PIK4CA 0 | PIK4CB 0 | PLK1 = 0 | PRKAA1 = 0 | PRKCA 0 | PTK2 = 0 | PTK2B 0 | RAF1 = 0 | [1] 0

CNc1cc2c(Nc3cccc(Br)c3)ncnc2cn1 (10 µM)
inactive: PDPK1 = 0 | PIK4CA 0 | PIK4CB 0 | PLK1 = 0 | PRKAA1 = 0 | PRKCA 0 | PTK2 = 0 | PTK2B 0 | RAF1 = 0 | [1] 0

CCOC(=O)c1c(C)[nH]c(C=C2C(=O)Nc3ccccc32)c1C (10 µM)
inactive: PDPK1 = 0 | PIK4CA 0 | PIK4CB 0 | PLK1 = 0 | PRKAA1 = 0 | PRKCA 0 | PTK2 = 0 | PTK2B 0 | RAF1 = 0 | [1] 0
